Publication doi:10.1101/553297

The chains behind the UniProt entries cited, without tags or fusion partners. Where a name states a change or a piece, a line headed by the entry shows the natural chain unless it says otherwise. Residues count along the entry.
UniProt P0C0S6: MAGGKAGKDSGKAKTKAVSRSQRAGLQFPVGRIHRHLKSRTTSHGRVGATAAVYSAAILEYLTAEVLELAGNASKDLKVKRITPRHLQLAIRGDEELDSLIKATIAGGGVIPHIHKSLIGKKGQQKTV
UniProt Q8BMS1, residues 37-763: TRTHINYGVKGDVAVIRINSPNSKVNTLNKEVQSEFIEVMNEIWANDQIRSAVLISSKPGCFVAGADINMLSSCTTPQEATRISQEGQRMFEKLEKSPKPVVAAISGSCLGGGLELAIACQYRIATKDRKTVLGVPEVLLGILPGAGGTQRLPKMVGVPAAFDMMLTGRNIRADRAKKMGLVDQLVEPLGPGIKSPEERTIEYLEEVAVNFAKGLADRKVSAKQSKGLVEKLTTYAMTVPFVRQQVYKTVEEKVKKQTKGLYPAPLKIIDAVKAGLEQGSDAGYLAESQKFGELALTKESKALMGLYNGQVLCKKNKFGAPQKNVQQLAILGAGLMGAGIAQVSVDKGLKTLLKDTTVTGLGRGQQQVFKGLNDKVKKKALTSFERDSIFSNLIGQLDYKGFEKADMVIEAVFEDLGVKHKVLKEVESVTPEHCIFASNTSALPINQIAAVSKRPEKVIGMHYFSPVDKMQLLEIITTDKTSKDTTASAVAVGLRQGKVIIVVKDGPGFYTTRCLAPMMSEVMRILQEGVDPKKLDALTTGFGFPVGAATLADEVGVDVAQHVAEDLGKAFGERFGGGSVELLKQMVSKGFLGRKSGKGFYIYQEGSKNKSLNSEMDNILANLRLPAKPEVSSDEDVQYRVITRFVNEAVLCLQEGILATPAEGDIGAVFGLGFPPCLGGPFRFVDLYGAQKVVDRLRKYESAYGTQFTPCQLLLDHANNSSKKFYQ
UniProt Q8K2B3, residues 43-664: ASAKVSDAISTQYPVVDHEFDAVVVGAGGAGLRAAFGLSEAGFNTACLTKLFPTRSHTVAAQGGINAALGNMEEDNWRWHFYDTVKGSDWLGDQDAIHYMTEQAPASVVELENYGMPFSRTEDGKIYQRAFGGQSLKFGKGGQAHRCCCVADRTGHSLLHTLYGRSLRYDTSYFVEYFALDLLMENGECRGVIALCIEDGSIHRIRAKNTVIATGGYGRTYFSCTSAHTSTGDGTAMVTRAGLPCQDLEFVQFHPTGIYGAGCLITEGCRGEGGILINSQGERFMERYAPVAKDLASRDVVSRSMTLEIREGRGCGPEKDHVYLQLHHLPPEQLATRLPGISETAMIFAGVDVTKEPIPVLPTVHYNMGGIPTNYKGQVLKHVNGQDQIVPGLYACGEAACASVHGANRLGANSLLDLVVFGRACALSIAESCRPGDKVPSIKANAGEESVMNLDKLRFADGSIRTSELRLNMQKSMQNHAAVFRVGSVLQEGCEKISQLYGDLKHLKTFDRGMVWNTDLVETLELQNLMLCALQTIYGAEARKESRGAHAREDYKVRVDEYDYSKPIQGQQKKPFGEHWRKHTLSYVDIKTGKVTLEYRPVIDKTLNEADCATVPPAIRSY

B1: oxoglutarate dehydrogenase (enzyme, UniProt Q60597 41-1023)
chain: SAPVAAEPFLSGTSSNYVEEMYCAWLENPKSVHKSWDIFFRNTNAGAPPGTAYQSPLSLSRSSLATMAHAQSLVEAQPNVDKLVEDHLAVQSLIRAYQIRGHHVAQLDPLGILDADLDSSVPADIISSTDKLGFYGLHESDLDKVFHLPTTTFIGGQEPALPLREIIRRLEMAYCQHIGVEFMFINDLEQCQWIRQKFETPGIMQFTNEEKRTLLARLVRSTRFEEFLQRKWSSEKRFGLEGCEVLIPALKTIIDMSSANGVDYVIMGMPHRGRLNVLANVIRKELEQIFCQFDSKLEAADEGSGDMKYHLGMYHRRINRVTDRNITLSLVANPSHLEAADPVVMGKTKAEQFYCGDTEGKKVMSILLHGDAAFAGQGIVYETFHLSDLPSYTTHGTVHVVVNNQIGFTTDPRMARSSPYPTDVARVVNAPIFHVNSDDPEAVMYVCKVAAEWRNTFHKDVVVDLVCYRRNGHNEMDEPMFTQPLMYKQIRKQKPVLQKYAELLVSQGVVNQPEYEEEISKYDKICEEAFTRSKDEKILHIKHWLDSPWPGFFTLDGQPRSMTCPSTGLEEDVLFHIGKVASSVPVENFTIHGGLSRILKTRRELVTNRTVDWALAEYMAFGSLLKEGIHVRLSGQDVERGTFSHRHHVLHDQNVDKRTCIPMNHLWPNQAPYTVCNSSLSEYGVLGFELGFAMASPNALVLWEAQFGDFNNMAQCIIDQFICPGQAKWVRQNGIVLLLPHGMEGMGPEHSSARPERFLQMCNDDPDVLPDLQEENFDINQLYDCNWIVVNCSTPGNFFHVLRRQILLPFRKPLIVFTPKSLLRHPEARTSFDEMLPGTHFQRVIPENGPAAQDPHKVKRLLFCTGKVYYDLTRERKARNMEEEVAITRIEQLSPFPFDLLLKEAQKYPNAELAWCQEEHKNQGYYDYVKPRLRTTIDRAKPVWYAGRDPAAAPATGNKKTHLTELQRFLDTAFDLDAFKKFS
B2: isocitrate dehydrogenase 2 (enzyme, UniProt P54071 40-452)
chain: AEKRIKVEKPVVEMDGDEMTRIIWQFIKEKLILPHVDVQLKYFDLGLPNRDQTNDQVTIDSALATQKYSVAVKCATITPDEARVEEFKLKKMWKSPNGTIRNILGGTVFREPIICKNIPRLVPGWTKPITIGRHAHGDQYKATDFVVDRAGTFKLVFTPKDGSSAKEWEVYNFPAGGVGMGMYNTDESISGFAHSCFQYSIQKKWPLYLSTKNTILKAYDGRFKDIFQEIFDKHYKTDFDKNKIWYEHRLIDDMVAQVLKSSGGFVWACKNYDGDVQSDILAQGFGSLGLMTSVLVCPDGKTIEAEAAHGTVTRHYREHQKGRPTSTNPIASIFAWTRGLEHRGKLDGNQDLIRFAQTLEKVCVQTVESGAMTKDLAGCIHGLSNVKLNEHFLNTTDFLDTIKSNLDRALGKQ
B3: pyruvate dehydrogenase A1 (enzyme, UniProt P35486 30-390)
chain: FANDATFEIKKCDLHRLEEGPPVTTVLTREDGLKYYRMMQTVRRMELKADQLYKQKIIRGFCHLCDGQEACCVGLEAGINPTDHLITAYRAHGFTFTRGLPVRAILAELTGRRGGCAKGKGGSMHMYAKNFYGGNGIVGAQVPLGAGIALACKYNGKDEVCLTLYGDGAANQGQIFEAYNMAALWKLPCIFICENNRYGMGTSVERAAASTDYYKRGDFIPGLRVDGMDILCVREATKFAAAYCRSGKGPILMELQTYRYHGHSMSDPGVSYRTREEIQEVRSKSDPIMLLKDRMVNSNLASVEELKEIDVEVRKEIEDAAQFATADPEPPLEELGYHIYSSDPPFEVRGANQWIKFKSVS
B4: acetyl-CoA acyltransferase 2 (enzyme, UniProt Q8BWT1 1-397)
chain: MALLRGVFIVAAKRTPFGAYGGLLKDFSATDLTEFAARAALSAGKVPPETIDSVIVGNVMQSSSDAAYLARHVGLRVGVPTETGALTLNRLCGSGFQSIVSGCQEICSKDAEVVLCGGTESMSQSPYCVRNVRFGTKFGLDLKLEDTLWAGLTDQHVKLPMGMTAENLAAKYNISREDCDRYALQSQQRWKAANEAGYFNEEMAPIEVKTKKGKQTMQVDEHARPQTTLEQLQKLPSVFKKDGTVTAGNASGVSDGAGAVIIASEDAVKKHNFTPLARVVGYFVSGCDPTIMGIGPVPAINGALKKAGLSLKDMDLIDVNEAFAPQFLSVQKALDLDPSKTNVSGGAIALGHPLGGSGSRITAHLVHELRRRGGKYAVGSACIGGGQGIALIIQNTA
B5: succinate dehydrogenase complex, subunit b (enzyme, UniProt Q9CQA3 31-282)
chain: AQTAAAAAPRIKKFAIYRWDPDKTGDKPRMQTYEVDLNKCGPMVLDALIKIKNEVDSTLTFRRSCREGICGSCAMNINGGNTLACTRRIDTDLSKVSKIYPLPHMYVIKDLVPDLSNFYAQYKSIEPYLKKKDESQEGKQQYLQSIEDREKLDGLYECILCACCSTSCPSYWWNGDKYLGPAVLMQAYRWMIDSRDDFTEERLAKLQDPFSVYRCHTIMNCTQTCPKGLNPGKAIAEIKKMMATYKEKRALA
B6: enoyl-CoA delta isomerase 1 (enzyme, UniProt P42125 29-289)
chain: FANKRVLVETEGPAGVAVMKLRNPPVNSLSLECLTEFTISLEKLENDKSIRGVILTSECPGIFSAGLDLLEMYGRNPAHYAEYWKNVQELWLRLYTSNMILVSAINGASPAGGCLLALCCDYRVMADNPKYTIGLNESLLGIVAPFWFKDMYVNTIGHREAERALQLGTLFSPAEALKVGVVDEVVPEDQVHSKARSVMTKWLAIPDHSRQLTKNMMRKATADNLIKQREADIQNFTSFISKDSIQKSLHMYLEKLKQKKG

What was measured:
[1] = biological target: histone variant H2A.Z (mouse (endogenous in mouse heart)) (UniProt P0C0S6); experiment: affinity purification with mass spectrometry
[2] = biological target: histone variant H2A.Z (mouse (endogenous in mouse heart)) (UniProt P0C0S6); experiment: affinity purification with mass spectrometry; remark: listed apart in the source

Row | Molecule | binding [1] | binding [2]
1 | hydroxyacyl-CoA dehydrogenase trifunctional multienzyme complex subunit alpha (from UniProt Q8BMS1 37-763) | binds | –
2 | succinate dehydrogenase complex, subunit A (from UniProt Q8K2B3 43-664) (enzyme) | binds | –
3 | B1 | – | binds
4 | B2 | – | binds
5 | B3 | – | binds
6 | B4 | – | binds
7 | B5 | – | binds
8 | B6 | – | binds

Like-named read-outs stand apart in the source and are kept apart here. No constants are given. Whether binding was seen depends on the method and setting. In cells and extracts the contact can be indirect. Here binding means that the protein was enriched with, or labelled near, the bait; the list need not be complete.
